Results from paper doi:10.1101/2024.03.19.585677.

Experiments:
[1] = tested on: GST-TrxA (Xanthomonas campestris); assay: EMSA; conditions: TrxA alone
[2] = molecular target: PSB15 WT (Xanthomonas phage phiLf-UK) (UniProt Q8P905); assay: EMSA; conditions: apparent Kd
[3] = molecular target: PSB15 WT (Xanthomonas phage phiLf-UK) (UniProt Q8P905); assay: UV cross-linking, Edman sequencing; conditions: F15 is the contact residue

## CGCGGGCCTCTACAACCGGCACCGTG [phiLf-UK/phiLf PS]
[1]
  binding result: no binding
[2]
  pKd: 7.99
[3]
  binding result: binds

pKd: −log10 of the molar value. For at least one entry, the source does not settle the construct or the ends of the probe. For part of these data: No signal at the amounts used counts as a negative.
